This note sets out measurements from doi:10.1101/871517.

Amino acid sequences for entries named in this document (tags omitted).
UniProt Q9NP72: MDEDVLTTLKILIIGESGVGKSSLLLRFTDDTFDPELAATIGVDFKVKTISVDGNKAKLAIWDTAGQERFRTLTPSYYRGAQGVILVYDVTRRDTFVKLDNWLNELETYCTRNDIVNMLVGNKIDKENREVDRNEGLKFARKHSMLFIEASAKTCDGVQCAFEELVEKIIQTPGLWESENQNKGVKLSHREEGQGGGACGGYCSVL
UniProt Q8TD16: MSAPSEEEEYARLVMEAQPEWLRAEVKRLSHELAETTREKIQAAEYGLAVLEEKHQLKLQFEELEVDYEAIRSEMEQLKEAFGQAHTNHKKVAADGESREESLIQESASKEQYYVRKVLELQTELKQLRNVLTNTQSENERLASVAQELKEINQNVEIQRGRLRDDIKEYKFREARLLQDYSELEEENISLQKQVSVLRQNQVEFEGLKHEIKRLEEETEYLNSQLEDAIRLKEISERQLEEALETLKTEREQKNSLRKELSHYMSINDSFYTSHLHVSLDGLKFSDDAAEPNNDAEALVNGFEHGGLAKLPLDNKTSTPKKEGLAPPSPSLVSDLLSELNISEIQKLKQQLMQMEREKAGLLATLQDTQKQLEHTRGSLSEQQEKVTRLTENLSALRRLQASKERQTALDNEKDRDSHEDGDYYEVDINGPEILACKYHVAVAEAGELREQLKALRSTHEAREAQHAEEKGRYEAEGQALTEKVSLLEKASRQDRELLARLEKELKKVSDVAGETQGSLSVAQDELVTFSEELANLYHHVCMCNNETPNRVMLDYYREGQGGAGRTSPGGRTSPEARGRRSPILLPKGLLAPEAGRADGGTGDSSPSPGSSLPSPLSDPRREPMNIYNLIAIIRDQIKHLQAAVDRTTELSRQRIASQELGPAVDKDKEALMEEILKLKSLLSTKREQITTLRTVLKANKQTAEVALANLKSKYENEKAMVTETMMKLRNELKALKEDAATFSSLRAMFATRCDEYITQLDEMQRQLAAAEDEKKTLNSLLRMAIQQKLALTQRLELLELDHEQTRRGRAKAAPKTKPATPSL
UniProt Q9Y426: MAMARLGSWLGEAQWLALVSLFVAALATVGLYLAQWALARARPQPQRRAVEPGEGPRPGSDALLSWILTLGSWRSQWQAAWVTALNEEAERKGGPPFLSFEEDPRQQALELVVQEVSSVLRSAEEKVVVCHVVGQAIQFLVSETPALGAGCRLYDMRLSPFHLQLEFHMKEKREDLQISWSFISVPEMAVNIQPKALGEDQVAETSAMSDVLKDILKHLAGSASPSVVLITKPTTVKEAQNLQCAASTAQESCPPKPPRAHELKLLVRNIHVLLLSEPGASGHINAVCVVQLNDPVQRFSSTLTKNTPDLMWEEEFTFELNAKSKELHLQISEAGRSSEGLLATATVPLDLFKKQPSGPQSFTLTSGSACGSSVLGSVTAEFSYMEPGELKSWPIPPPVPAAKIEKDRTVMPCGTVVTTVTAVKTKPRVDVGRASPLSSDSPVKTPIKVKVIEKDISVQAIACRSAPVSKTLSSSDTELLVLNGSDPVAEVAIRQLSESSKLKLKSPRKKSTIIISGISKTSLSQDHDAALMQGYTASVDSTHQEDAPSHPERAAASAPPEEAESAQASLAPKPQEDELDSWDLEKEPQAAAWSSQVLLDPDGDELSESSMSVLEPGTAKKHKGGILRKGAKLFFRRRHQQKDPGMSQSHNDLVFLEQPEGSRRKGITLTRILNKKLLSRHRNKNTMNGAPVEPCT
UniProt P32019: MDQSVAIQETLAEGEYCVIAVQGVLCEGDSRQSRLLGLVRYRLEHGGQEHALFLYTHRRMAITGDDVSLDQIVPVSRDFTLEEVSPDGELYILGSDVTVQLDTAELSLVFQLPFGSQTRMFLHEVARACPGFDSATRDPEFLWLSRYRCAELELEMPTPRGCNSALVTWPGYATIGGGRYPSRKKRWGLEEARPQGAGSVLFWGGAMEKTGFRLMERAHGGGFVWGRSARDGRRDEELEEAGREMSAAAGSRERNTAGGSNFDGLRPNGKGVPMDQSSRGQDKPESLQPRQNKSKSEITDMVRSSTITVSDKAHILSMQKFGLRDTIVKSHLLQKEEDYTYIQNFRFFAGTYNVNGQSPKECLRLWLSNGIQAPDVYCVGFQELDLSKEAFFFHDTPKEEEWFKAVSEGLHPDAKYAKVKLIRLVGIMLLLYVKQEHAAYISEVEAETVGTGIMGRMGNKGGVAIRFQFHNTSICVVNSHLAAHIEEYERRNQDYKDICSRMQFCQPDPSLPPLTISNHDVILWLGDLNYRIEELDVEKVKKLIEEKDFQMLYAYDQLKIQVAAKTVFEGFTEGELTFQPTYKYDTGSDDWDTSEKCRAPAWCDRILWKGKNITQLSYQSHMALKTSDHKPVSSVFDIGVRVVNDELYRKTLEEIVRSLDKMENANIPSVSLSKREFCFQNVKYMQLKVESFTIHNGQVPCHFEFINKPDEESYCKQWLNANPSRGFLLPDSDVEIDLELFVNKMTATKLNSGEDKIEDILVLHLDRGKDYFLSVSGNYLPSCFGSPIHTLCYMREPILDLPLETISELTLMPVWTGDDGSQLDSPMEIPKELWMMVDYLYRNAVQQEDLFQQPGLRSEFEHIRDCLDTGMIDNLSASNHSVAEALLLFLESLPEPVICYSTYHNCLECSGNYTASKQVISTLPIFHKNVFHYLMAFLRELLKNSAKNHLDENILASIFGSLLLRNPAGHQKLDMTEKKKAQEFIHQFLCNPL
UniProt A2RRP1: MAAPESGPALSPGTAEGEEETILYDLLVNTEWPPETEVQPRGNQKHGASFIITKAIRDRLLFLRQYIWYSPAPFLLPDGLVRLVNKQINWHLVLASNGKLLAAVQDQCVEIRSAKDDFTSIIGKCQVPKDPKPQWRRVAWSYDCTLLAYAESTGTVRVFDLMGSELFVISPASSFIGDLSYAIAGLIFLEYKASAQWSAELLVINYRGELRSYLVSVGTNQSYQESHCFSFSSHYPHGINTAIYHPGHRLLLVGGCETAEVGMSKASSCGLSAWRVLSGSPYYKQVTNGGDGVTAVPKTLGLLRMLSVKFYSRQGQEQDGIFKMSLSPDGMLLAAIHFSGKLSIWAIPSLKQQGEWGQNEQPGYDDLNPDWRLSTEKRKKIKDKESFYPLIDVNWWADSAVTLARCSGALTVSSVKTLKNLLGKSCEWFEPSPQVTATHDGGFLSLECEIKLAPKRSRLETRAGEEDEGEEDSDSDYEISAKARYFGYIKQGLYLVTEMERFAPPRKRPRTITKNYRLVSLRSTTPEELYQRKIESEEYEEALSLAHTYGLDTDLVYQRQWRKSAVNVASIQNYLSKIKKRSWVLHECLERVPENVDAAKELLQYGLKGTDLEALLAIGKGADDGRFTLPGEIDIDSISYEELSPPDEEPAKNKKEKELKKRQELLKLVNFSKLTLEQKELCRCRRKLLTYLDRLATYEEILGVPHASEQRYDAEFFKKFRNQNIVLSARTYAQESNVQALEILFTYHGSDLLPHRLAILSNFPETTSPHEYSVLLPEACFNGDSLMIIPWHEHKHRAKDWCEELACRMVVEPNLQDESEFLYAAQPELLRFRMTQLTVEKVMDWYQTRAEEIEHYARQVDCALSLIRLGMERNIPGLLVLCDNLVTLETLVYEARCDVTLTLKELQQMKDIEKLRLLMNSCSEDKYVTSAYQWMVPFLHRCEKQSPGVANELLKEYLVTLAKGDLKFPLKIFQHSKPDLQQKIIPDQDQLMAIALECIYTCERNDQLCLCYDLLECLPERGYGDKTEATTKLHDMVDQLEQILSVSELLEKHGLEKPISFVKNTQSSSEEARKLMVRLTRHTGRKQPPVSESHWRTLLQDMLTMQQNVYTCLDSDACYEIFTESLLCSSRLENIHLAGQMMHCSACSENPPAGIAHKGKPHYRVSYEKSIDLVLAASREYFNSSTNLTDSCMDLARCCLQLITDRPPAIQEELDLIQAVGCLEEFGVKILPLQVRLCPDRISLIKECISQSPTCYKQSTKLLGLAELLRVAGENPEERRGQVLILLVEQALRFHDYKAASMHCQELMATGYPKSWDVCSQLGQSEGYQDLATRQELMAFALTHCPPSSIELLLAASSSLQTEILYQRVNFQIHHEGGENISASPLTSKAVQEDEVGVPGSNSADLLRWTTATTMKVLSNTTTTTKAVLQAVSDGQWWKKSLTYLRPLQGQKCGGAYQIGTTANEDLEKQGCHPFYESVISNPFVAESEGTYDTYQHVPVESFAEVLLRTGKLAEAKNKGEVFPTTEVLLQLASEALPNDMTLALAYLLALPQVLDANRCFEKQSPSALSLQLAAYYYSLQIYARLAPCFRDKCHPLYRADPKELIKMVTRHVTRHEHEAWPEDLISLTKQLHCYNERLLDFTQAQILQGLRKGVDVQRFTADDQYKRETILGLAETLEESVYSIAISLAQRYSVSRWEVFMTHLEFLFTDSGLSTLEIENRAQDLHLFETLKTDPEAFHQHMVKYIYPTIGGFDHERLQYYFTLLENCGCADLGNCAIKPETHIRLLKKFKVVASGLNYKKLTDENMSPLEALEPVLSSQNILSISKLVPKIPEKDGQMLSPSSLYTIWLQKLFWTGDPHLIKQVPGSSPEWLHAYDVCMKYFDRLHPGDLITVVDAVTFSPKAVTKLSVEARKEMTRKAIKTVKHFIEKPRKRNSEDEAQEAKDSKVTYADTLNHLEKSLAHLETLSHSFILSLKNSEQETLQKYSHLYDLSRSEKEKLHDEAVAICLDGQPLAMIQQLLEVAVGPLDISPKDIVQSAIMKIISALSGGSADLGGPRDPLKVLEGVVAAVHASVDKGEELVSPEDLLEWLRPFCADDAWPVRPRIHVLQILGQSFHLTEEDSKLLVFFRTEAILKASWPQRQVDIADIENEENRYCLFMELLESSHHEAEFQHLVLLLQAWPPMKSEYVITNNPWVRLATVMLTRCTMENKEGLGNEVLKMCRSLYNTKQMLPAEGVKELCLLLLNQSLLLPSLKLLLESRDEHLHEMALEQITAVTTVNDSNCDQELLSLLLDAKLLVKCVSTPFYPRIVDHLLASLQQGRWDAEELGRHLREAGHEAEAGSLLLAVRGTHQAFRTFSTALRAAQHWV
UniProt Q6NUQ1: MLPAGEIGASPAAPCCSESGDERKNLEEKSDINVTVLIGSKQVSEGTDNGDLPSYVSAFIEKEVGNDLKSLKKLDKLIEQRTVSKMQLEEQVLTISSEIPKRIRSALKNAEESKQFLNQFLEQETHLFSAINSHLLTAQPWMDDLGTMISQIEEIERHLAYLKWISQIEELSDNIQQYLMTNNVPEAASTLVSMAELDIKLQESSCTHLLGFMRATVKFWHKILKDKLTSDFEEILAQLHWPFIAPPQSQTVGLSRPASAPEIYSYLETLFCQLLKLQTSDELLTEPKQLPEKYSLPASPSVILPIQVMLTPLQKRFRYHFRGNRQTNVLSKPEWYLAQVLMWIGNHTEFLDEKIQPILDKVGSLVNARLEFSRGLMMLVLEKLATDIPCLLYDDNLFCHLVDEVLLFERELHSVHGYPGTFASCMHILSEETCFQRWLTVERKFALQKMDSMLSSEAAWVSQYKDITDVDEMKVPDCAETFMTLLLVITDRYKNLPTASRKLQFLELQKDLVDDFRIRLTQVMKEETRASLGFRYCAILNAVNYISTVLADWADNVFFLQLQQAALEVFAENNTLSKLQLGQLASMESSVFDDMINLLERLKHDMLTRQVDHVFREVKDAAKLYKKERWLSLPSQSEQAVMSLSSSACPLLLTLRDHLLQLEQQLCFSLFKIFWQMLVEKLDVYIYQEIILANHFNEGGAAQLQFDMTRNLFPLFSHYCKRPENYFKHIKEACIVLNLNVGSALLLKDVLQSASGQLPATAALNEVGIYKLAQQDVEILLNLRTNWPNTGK

Results are given in words; binding and its absence hold for the method and conditions named. In cells and extracts the contact can be indirect. Here binding means that the protein was enriched with, or labelled near, the bait; the list need not be complete.

One test has as its target BirA*-RAB18 (UniProt Q9NP72). The test is described as follows: proximity labelling.
Consider BICD2 (from UniProt Q8TD16 1-824), for which the binding entry is reported as “binds”.

Turning to C2CD2 (from UniProt Q9Y426 1-696), the binding result is on record as “binds”.

As for CAMSAP1 (from UniProt Q5T5Y3 1-1602), the binding result is given as “binds”.

In the case of “INPP5B (endogenous) (from UniProt P32019 1-993)”, the binding result is “binds”.

As for NBAS (from UniProt A2RRP1 1-2371), the binding result is on record as “binds”.

For the substance RINT1 (from UniProt Q6NUQ1 1-792), the binding result was “binds”.

A further test deals with T1, BioID2(Gly40Ser)-SEC22A (human) (UniProt Q96IW7).
T1 sequence: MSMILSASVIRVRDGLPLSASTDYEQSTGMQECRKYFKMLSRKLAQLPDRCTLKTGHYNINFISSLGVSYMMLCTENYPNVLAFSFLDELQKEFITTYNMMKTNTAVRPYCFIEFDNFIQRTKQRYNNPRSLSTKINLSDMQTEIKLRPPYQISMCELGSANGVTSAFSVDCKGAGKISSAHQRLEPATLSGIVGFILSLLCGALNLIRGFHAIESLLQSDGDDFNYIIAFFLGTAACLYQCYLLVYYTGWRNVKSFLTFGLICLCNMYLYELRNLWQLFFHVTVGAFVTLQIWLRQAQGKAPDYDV
The test can be described thus: proximity labelling.
Regarding “RAB18 (endogenous) (from UniProt Q9NP72 1-206)”, the binding result was “binds”.
